Data as given in PubChem BioAssay AID686938 (Drosophila RNAi Screening Center, 2013)

- Assay: 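Knock-downs reducing store-operated calcium influx in Drosophila cells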 (primary screen)
- System: Drosophila S2R+ cells
- Reagents: long dsRNA against Drosophila genes, about 0.25 µg dsRNA per well, roughly 10,000 cells
- Time to read-out: 5 days of knock-down before the calcium assay
- Challenge: thapsigargin (SERCA pump blocker) to empty calcium stores; entry signal taken 4 min after adding it
- Detection: 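Duplicate raw fluo-4 intensities per well from a plate reader, at rest and four minutes after thapsigargin emptied calcium stores; entry-to-rest ratio filled for only some wells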
- Direction: calcium entry signal: higher = stronger calcium signal after store depletion; resting calcium signal: higher = higher resting calcium signal
- Active means: 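Called when the plate z-score of the entry-to-rest ratio, mean of duplicates, falls below −3; wells with low overall dye signal (Fmax z below −2) or more than five off-targets excluded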
- Meaning of the calls: active = strongly reduced calcium entry; inactive = no strong reduction
In all, the deposit lists about 23,000 reagents; shown is a random part of those that have a named target and a result. In the full data, 75 (0.33%) are marked active. 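Raw plate signals without normalisation; calls rest on plate z-scores that were not deposited; ratio present for only 364 wells.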 Not given: the dose of the treatment.

Silencing of Nepl5 (GeneID 33892) [DRSC03241] resulted in: calcium entry signal, replicate 1 (fluorescence units) = 4.81e7; resting calcium signal, replicate 1 (fluorescence units) = 2.51e7; inactive.
Against js (GeneID 41986) [DRSC15004], the values are calcium entry signal, replicate 1 (fluorescence units) = 3.85e7; calcium entry signal, replicate 2 (fluorescence units) = 4.32e7; resting calcium signal, replicate 1 (fluorescence units) = 1.91e7; resting calcium signal, replicate 2 (fluorescence units) = 5.95e7; inactive.
CG14301 (GeneID 42235) [DRSC14780] scored calcium entry signal, replicate 1 (fluorescence units) = 3.84e7; calcium entry signal, replicate 2 (fluorescence units) = 4.83e7; resting calcium signal, replicate 1 (fluorescence units) = 5.29e7; resting calcium signal, replicate 2 (fluorescence units) = 2.06e7; inactive.
Against CG15638 (GeneID 34768) [DRSC01875], the values are calcium entry signal, replicate 1 (fluorescence units) = 4.11e7; calcium entry signal, replicate 2 (fluorescence units) = 2.66e7; resting calcium signal, replicate 1 (fluorescence units) = 1.85e7; resting calcium signal, replicate 2 (fluorescence units) = 1.17e7; inactive.
Against Oli (GeneID 35066) [DRSC02866] the deposit lists calcium entry signal, replicate 1 (fluorescence units) = 4.74e7; resting calcium signal, replicate 1 (fluorescence units) = 2.09e7; inactive.
Sr-CI (GeneID 33621) [DRSC00790] scored calcium entry signal, replicate 1 (fluorescence units) = 4.48e7; calcium entry signal, replicate 2 (fluorescence units) = 3.15e7; resting calcium signal, replicate 1 (fluorescence units) = 2.45e7; resting calcium signal, replicate 2 (fluorescence units) = 1.63e7; inactive.
Lhr (GeneID 36957) [DRSC06759] scored calcium entry signal, replicate 1 (fluorescence units) = 3.16e7; calcium entry signal, replicate 2 (fluorescence units) = 2.60e7; resting calcium signal, replicate 1 (fluorescence units) = 1.41e7; resting calcium signal, replicate 2 (fluorescence units) = 1.37e7; inactive.
For CG15160 (GeneID 35109) [DRSC02461], the values are calcium entry signal, replicate 1 (fluorescence units) = 3.36e7; calcium entry signal, replicate 2 (fluorescence units) = 4.32e7; resting calcium signal, replicate 1 (fluorescence units) = 1.72e7; resting calcium signal, replicate 2 (fluorescence units) = 1.82e7; inactive.
Knock-down of CG4291 (GeneID 33264) [DRSC00650] resulted in: calcium entry signal, replicate 1 (fluorescence units) = 4.35e7; resting calcium signal, replicate 1 (fluorescence units) = 2.46e7; inactive.
After knock-down of gkt (GeneID 33530) [DRSC00821], the record shows calcium entry signal, replicate 1 (fluorescence units) = 2.57e7; calcium entry signal, replicate 2 (fluorescence units) = 2.45e7; resting calcium signal, replicate 1 (fluorescence units) = 1.27e7; resting calcium signal, replicate 2 (fluorescence units) = 1.21e7; inactive.
PolrMT (GeneID 33285) [DRSC00660] scored calcium entry signal, replicate 1 (fluorescence units) = 4.96e7; resting calcium signal, replicate 1 (fluorescence units) = 2.32e7; inactive.
Knock-down of Hcf (GeneID 43788) [DRSC17143] resulted in: calcium entry signal, replicate 1 (fluorescence units) = 2.79e7; calcium entry signal, replicate 2 (fluorescence units) = 3.70e7; resting calcium signal, replicate 1 (fluorescence units) = 1.59e7; resting calcium signal, replicate 2 (fluorescence units) = 1.77e7; inactive.
For CG14855 (GeneID 41789) [DRSC14979] the deposit lists calcium entry signal, replicate 1 (fluorescence units) = 3.18e7; calcium entry signal, replicate 2 (fluorescence units) = 5.51e7; resting calcium signal, replicate 1 (fluorescence units) = 1.58e7; resting calcium signal, replicate 2 (fluorescence units) = 6.68e7; inactive.
For CG12728 (GeneID 31526) [DRSC17883] the deposit lists calcium entry signal, replicate 1 (fluorescence units) = 3.18e7; calcium entry signal, replicate 2 (fluorescence units) = 3.51e7; resting calcium signal, replicate 1 (fluorescence units) = 1.53e7; resting calcium signal, replicate 2 (fluorescence units) = 1.58e7; inactive.

Reformatted: entries from further up
gene | amplicon | calcium entry signal, replicate 1 (fluorescence units) | calcium entry signal, replicate 2 (fluorescence units) | resting calcium signal, replicate 1 (fluorescence units) | resting calcium signal, replicate 2 (fluorescence units) | Call
CG4291 (GeneID 33264) | DRSC00650 | 4.35e7 | – | 2.46e7 | – | inactive
gkt (GeneID 33530) | DRSC00821 | 2.57e7 | 2.45e7 | 1.27e7 | 1.21e7 | inactive

The listing continues:
Against pont (GeneID 53439) [DRSC17029] the deposit lists calcium entry signal, replicate 1 (fluorescence units) = 2.35e7; calcium entry signal, replicate 2 (fluorescence units) = 2.48e7; resting calcium signal, replicate 1 (fluorescence units) = 1.49e7; resting calcium signal, replicate 2 (fluorescence units) = 1.63e7; inactive.
Against Idgf5 (GeneID 37104) [DRSC06919], the entry reads calcium entry signal, replicate 1 (fluorescence units) = 3.99e7; calcium entry signal, replicate 2 (fluorescence units) = 3.11e7; resting calcium signal, replicate 1 (fluorescence units) = 1.76e7; resting calcium signal, replicate 2 (fluorescence units) = 1.67e7; inactive.
With knock-down of bys (GeneID 31701) [DRSC18748] the results were calcium entry signal, replicate 1 (fluorescence units) = 3.11e7; calcium entry signal, replicate 2 (fluorescence units) = 2.89e7; resting calcium signal, replicate 1 (fluorescence units) = 1.63e7; resting calcium signal, replicate 2 (fluorescence units) = 1.56e7; inactive.
Against Nrk (GeneID 36445) [DRSC07480] the deposit lists calcium entry signal, replicate 1 (fluorescence units) = 2.48e7; calcium entry signal, replicate 2 (fluorescence units) = 3.21e7; resting calcium signal, replicate 1 (fluorescence units) = 1.32e7; resting calcium signal, replicate 2 (fluorescence units) = 1.50e7; inactive.
Silencing of Fip1 (GeneID 40569) [DRSC12147] gave: calcium entry signal, replicate 1 (fluorescence units) = 3.37e7; calcium entry signal, replicate 2 (fluorescence units) = 3.75e7; resting calcium signal, replicate 1 (fluorescence units) = 1.61e7; resting calcium signal, replicate 2 (fluorescence units) = 2.35e7; inactive.
Against CG34334 (GeneID 5740122) [DRSC20643] the deposit lists calcium entry signal, replicate 1 (fluorescence units) = 4.68e7; calcium entry signal, replicate 2 (fluorescence units) = 4.77e7; resting calcium signal, replicate 1 (fluorescence units) = 2.18e7; resting calcium signal, replicate 2 (fluorescence units) = 1.99e7; inactive.
bou (GeneID 31644) [DRSC17924] gave calcium entry signal, replicate 1 (fluorescence units) = 3.57e7; calcium entry signal, replicate 2 (fluorescence units) = 5.33e7; resting calcium signal, replicate 1 (fluorescence units) = 1.86e7; resting calcium signal, replicate 2 (fluorescence units) = 2.30e7; inactive.
